Reference: the supplement of paper PMC10849652
This is one part of the list.

Protein sequences, listed by entry. Tags and fused reporters are not part of them. Lines headed by an entry give the natural chain unless they say otherwise; changes in a name come on top.
UniProt Q8NBU5: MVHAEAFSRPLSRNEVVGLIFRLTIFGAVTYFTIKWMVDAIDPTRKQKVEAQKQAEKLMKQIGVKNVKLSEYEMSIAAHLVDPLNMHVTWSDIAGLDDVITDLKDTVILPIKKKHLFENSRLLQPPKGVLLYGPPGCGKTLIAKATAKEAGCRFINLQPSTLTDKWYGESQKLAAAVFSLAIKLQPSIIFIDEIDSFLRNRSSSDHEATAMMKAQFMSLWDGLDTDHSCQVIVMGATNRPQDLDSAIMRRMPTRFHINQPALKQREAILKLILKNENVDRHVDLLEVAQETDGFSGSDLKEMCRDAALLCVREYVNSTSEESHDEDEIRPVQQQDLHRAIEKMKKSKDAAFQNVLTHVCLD
UniProt Q9H993: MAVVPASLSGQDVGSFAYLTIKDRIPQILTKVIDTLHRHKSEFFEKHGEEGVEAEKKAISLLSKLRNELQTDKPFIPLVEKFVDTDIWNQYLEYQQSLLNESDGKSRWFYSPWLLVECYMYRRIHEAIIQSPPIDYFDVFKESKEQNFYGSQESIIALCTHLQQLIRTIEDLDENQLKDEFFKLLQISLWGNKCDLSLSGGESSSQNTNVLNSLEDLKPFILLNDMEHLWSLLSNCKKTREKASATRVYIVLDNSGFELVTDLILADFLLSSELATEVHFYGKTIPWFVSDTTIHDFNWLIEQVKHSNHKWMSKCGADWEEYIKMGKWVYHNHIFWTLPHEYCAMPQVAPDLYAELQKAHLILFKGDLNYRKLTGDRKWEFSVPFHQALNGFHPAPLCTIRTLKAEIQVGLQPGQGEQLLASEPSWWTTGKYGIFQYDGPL
UniProt Q16864, whole entry, looked up: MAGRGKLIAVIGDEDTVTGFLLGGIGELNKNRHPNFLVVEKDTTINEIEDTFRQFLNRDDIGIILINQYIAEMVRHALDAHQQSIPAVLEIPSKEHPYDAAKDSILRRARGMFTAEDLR
UniProt Q8IUR7, whole entry, looked up: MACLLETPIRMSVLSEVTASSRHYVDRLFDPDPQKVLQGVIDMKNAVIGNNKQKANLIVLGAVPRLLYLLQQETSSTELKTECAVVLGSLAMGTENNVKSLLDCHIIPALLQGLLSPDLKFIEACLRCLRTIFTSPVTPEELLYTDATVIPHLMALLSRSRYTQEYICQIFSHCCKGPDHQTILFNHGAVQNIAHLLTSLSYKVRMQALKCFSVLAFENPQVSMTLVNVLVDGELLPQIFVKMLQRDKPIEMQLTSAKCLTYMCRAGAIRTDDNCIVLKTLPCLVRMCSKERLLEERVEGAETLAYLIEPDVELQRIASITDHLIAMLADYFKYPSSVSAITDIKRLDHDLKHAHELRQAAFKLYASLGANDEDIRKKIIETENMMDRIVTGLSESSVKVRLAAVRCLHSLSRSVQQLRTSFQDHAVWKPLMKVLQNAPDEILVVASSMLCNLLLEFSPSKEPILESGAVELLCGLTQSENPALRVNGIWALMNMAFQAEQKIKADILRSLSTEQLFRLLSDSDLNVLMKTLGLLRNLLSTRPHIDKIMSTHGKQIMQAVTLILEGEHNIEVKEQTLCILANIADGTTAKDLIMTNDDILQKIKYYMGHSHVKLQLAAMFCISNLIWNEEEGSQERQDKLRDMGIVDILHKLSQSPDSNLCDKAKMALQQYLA
UniProt Q9Y6H3: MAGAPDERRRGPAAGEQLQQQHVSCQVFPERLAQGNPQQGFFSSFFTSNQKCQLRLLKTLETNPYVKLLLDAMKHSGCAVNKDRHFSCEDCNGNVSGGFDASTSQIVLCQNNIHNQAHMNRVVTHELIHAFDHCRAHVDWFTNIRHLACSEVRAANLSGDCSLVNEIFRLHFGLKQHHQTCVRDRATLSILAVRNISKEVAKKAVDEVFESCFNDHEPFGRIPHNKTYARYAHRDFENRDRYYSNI
UniProt Q8IZT6: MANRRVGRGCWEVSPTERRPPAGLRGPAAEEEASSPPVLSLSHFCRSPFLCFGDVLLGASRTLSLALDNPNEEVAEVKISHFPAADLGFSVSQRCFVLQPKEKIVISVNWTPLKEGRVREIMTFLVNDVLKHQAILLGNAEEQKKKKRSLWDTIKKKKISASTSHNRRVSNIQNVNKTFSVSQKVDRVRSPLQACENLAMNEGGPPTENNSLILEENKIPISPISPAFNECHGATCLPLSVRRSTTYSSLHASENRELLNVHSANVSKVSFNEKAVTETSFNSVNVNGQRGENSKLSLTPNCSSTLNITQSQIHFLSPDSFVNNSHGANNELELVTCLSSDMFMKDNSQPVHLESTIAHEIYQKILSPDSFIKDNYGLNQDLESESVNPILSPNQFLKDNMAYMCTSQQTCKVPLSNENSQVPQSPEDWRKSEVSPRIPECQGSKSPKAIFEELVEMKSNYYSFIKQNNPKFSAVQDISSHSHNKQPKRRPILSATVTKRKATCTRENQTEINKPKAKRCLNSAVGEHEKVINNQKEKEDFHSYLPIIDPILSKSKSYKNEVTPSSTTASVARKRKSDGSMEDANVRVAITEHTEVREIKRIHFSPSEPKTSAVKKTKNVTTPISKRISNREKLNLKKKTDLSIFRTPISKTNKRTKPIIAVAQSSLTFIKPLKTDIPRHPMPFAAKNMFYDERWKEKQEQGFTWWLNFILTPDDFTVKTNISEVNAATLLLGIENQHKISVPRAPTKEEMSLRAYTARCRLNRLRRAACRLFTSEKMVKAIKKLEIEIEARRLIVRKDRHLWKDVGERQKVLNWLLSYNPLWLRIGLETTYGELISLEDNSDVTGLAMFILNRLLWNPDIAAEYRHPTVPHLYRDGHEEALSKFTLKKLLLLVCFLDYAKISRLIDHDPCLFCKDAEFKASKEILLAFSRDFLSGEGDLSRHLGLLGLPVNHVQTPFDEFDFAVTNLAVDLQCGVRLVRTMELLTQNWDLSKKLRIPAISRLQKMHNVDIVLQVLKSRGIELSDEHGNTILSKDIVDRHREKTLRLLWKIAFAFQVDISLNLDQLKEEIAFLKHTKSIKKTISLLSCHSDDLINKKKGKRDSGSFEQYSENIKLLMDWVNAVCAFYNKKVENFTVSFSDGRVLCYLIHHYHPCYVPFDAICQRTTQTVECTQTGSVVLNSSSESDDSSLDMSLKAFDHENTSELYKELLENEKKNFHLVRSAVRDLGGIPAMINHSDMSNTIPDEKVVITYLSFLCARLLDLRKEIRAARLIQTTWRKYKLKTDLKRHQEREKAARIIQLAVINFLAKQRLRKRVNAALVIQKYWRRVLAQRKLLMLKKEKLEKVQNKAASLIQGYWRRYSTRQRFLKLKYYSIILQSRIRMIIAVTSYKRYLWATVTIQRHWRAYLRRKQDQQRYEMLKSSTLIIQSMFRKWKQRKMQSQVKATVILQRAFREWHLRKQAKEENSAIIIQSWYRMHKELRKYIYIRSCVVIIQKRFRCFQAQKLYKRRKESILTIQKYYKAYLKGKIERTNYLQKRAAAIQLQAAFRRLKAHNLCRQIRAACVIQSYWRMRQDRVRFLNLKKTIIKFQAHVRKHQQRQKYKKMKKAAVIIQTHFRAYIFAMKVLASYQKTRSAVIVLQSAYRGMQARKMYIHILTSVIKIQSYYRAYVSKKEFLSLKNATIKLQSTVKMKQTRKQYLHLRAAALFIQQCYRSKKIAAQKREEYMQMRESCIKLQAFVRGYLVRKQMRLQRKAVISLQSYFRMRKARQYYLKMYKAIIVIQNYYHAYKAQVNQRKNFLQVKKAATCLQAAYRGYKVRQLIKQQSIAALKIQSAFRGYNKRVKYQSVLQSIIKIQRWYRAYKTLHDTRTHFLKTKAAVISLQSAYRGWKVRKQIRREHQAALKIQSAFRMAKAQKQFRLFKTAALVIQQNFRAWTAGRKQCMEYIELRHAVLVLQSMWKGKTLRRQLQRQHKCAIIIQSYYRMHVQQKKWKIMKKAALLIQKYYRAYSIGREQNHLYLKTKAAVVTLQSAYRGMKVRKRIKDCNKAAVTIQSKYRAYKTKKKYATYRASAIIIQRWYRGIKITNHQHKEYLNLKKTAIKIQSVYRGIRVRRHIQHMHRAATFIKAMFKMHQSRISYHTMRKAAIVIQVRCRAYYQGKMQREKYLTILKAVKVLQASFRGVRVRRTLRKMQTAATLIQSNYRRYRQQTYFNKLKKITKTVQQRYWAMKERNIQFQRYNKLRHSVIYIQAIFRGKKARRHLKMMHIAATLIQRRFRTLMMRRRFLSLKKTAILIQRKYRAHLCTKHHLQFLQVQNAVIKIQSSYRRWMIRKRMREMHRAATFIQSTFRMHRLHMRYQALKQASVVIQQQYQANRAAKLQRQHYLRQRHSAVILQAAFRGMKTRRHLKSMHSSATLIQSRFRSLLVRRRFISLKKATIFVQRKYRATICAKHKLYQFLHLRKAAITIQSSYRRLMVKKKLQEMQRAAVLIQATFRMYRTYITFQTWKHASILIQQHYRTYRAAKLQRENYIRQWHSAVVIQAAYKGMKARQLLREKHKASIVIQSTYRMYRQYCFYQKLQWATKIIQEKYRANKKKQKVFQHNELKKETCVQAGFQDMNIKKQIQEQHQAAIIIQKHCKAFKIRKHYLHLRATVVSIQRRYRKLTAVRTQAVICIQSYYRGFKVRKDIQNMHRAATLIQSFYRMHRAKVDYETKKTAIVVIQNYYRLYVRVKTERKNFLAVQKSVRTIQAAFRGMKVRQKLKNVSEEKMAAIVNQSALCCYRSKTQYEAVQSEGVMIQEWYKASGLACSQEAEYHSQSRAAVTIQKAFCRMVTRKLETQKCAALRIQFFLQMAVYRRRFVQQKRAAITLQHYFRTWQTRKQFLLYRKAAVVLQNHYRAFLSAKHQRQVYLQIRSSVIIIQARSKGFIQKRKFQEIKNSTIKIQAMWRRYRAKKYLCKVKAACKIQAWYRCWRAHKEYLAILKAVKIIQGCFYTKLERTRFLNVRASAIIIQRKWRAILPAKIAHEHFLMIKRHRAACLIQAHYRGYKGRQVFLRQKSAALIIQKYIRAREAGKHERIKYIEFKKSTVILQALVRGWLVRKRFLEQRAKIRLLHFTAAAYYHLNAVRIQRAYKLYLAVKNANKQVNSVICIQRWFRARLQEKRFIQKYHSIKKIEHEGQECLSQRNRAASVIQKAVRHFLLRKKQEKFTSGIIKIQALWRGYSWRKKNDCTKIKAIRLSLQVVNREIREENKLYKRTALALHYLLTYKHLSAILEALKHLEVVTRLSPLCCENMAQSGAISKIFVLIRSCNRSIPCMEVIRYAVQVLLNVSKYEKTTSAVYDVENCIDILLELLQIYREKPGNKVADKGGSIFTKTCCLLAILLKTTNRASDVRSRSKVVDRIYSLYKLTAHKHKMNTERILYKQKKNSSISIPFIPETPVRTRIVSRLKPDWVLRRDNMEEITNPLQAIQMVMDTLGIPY
UniProt P56381: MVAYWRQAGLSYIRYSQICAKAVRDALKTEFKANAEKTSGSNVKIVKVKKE
UniProt P54259: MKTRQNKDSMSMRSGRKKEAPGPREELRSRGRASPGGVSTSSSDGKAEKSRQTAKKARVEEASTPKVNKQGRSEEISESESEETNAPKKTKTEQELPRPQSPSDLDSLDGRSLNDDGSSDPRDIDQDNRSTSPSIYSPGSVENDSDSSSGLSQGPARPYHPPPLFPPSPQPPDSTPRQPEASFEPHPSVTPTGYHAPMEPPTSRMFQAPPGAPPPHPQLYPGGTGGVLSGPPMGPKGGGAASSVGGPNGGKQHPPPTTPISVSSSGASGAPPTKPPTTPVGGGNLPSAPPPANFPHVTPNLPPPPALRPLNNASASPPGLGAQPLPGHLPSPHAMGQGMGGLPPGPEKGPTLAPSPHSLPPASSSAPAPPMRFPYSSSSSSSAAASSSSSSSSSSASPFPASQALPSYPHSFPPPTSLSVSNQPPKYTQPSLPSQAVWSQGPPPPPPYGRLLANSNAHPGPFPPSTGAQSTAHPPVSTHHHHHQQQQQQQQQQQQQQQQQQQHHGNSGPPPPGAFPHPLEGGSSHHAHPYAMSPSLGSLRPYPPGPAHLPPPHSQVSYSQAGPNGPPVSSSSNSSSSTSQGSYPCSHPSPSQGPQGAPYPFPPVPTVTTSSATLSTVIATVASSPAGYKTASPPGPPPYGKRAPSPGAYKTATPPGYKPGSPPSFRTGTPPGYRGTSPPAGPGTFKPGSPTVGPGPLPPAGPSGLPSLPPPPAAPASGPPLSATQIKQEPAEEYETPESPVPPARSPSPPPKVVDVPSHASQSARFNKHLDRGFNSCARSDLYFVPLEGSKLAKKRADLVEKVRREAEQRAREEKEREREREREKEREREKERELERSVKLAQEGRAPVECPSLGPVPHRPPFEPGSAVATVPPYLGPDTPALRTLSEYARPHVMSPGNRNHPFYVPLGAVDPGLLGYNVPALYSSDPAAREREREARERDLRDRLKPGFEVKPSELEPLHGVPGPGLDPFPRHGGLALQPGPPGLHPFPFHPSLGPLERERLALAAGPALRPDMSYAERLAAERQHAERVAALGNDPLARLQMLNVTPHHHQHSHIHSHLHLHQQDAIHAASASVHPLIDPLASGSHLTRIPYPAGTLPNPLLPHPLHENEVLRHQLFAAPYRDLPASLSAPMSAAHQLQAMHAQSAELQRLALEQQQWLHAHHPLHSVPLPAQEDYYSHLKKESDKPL

Assays:
Assay in all cases: log2 fold change, soluble protein after heating vs DMSO (PISA); higher = thermal stabilisation; K562 cells, 10 uM, 30 min; active = over 0.2 and 3.5 SD of the protein, either way, in both replicates (recomputed)
[1] = compound: C1=CC=C(C=C1)[C@H](COC2=CC3=C(C=C2)NC(=O)N3)NC(=O)C4=CC=CN(C4=O)CC5=CC(=C(C=C5)F)F
Outline: (§1)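 Thermal stability values are relative to control samples and come from duplicates. They are expressed as log2 fold changes. For measurement, K562 cells (2×10^6 cells/mL) received 10 μM compound for 30 min, and aliquots were heated for 3 min over 48°C-58°C, pooled, and extracted at 4°C in PBS with 0.5% NP-40. Soluble protein, the supernatant after 21,000xg for 90 min, was quantified by TMTpro 16plex LC-MS/MS with equalised channel sums.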

[2] = compound: CC1=C(SC2=C1C(=N[C@H](C3=NN=C(N32)C)CC(=O)N)C4=CC=C(C=C4)Cl)C
Outline: as §1

[3] = compound: CC1=C2C(=CC=C1)N=C(N(C2=O)C3=CC=CC=C3C)CN4C=NC5=C(N=CN=C54)N
Outline: as §1

[4] = compound: Cc1sc2c(c1C)C(c1ccc(Cl)cc1)=N[C@@H](CC(=O)OC(C)(C)C)c1nnc(C)n1-2
Outline: as §1

[5] = compound: c1ccc([C@@H]2C[C@H]2NC2CCNCC2)cc1
Outline: as §1

Measured: log2 fold change

ATP2A2 (UniProt P16615)
inactive: [1] -0.029 | [2] 0.068 | [3] 0.042 | [4] -0.026 | [5] -0.022

ATP5PD (UniProt O75947)
inactive: [1] 0.058 | [2] 0 | [3] 0.023 | [4] -0.058 | [5] 0

ARL4A (UniProt P40617)
inactive: [1] -0.027

ARL2 (UniProt P36404)
inactive: [1] -0.037 | [2] 0.072 | [3] 0.015 | [4] -0.062 | [5] 0.012

ATG3 (UniProt Q9NT62)
inactive: [1] 0.002 | [2] 0.01 | [3] 0.074 | [4] 0.016 | [5] 0.005

ATP1B2 (UniProt P14415)
inactive: [1] -0.059 | [2] -0.048 | [3] 0.074 | [4] 0.047 | [5] 0.111

ASNSD1 (UniProt Q9NWL6)
inactive: [1] 0.201

ATF3 (UniProt P18847)
inactive: [1] 0.004 | [2] 0.277 | [3] 0.021 | [4] 0.143 | [5] 0.097

ATP5F1D (UniProt P30049)
inactive: [1] 0.006 | [2] 0.07 | [3] 0.015 | [4] -0.044 | [5] -0.015

ATF2 (UniProt P15336)
inactive: [1] 0.003 | [2] -0.013 | [3] 0.086 | [4] 0.071 | [5] -0.05

ARPC5L (UniProt Q9BPX5)
inactive: [1] 0.017 | [2] 0.031 | [3] -0.037 | [4] 0.004 | [5] 0.022

ATP6V0A1 (UniProt Q93050)
inactive: [1] 0.281

ATP2C1 isoform 7 (UniProt P98194)
inactive: [1] -0.005 | [2] 0.047 | [3] 0.016 | [4] 0.027 | [5] 0.021

ATAD1 (UniProt Q8NBU5)
inactive: [1] 0.016 | [2] 0.055 | [3] 0.063 | [4] -0.027 | [5] -0.02

ARMT1 (UniProt Q9H993)
inactive: [1] -0.209 | [2] -0.012 | [3] 0.118 | [4] 0.183 | [5] -0.021

ATP6AP1 (UniProt Q15904)
inactive: [1] 0.014 | [2] -0.069 | [3] -0.009 | [4] -0.055 | [5] -0.022

ATG4C (UniProt Q96DT6)
inactive: [1] -0.247 | [2] 0.058 | [3] 0.049 | [4] -0.344 | [5] -0.142

ATP6V1F isoform 2 (UniProt Q16864)
inactive: [1] 0.015 | [2] -0.144 | [3] -0.138 | [4] -0.126 | [5] 0.02

ARNT (UniProt P27540)
inactive: [1] -0.157 | [2] 0.058 | [3] -0.106 | [4] 0.024 | [5] 0.017

ATP11B (UniProt Q9Y2G3)
inactive: [1] 0.005 | [2] 0.009 | [3] 0.079 | [4] -0.03 | [5] 0.057

ARL3 (UniProt P36405)
inactive: [1] -0.002 | [2] 0.04 | [3] 0.038 | [4] -0.06 | [5] -0.005

ARPC4 isoform 3 (UniProt P59998)
inactive: [1] 0.011 | [2] 0.036 | [3] 0.023 | [4] -0.05 | [5] 0.028

ARMC8 (UniProt Q8IUR7)
inactive: [1] 0.05 | [2] -0.005 | [3] 0 | [4] 0.021 | [5] 0.011

ARRB2 isoform 4 (UniProt P32121)
inactive: [1] 0.031 | [2] -0.01 | [3] 0.062 | [4] 0.004 | [5] 0.014

ASH2L (UniProt Q9UBL3)
inactive: [1] 0.016 | [2] -0.013 | [3] 0.081 | [4] -0.031 | [5] 0.005

ARIH1 (UniProt Q9Y4X5)
inactive: [1] -0.024 | [2] -0.015 | [3] 0.063 | [4] -0.015 | [5] 0.027

ASF1B (UniProt Q9NVP2)
inactive: [1] -0.06 | [2] -0.018 | [3] 0.07 | [4] 0.018 | [5] 0.092

ARV1 (UniProt Q9H2C2)
inactive: [1] -0.007 | [2] 0.041 | [3] 0.06 | [4] 0.005 | [5] 0.032

ATP6V1H (UniProt Q9UI12)
inactive: [1] -0.003 | [2] 0.065 | [3] 0.029 | [4] -0.019 | [5] -0.116

Fetched one by one from above (two):
ASF1B (UniProt Q9NVP2)
inactive: [1] -0.06 | [2] -0.018 | [3] 0.07 | [4] 0.018 | [5] 0.092

ARIH1 (UniProt Q9Y4X5)
inactive: [1] -0.024 | [2] -0.015 | [3] 0.063 | [4] -0.015 | [5] 0.027

Following part

ATG14 (UniProt Q6ZNE5)
inactive: [1] 0.175

ATG12 (UniProt O94817)
inactive: [1] -0.027 | [2] 0.058 | [3] 0.089 | [4] -0.012 | [5] -0.012

ATPSCKMT (UniProt Q6P4H8)
inactive: [1] 0.051 | [2] 0.048 | [3] -0.004 | [4] -0.046 | [5] 0.029

ARL6IP4 (UniProt Q66PJ3)
inactive: [1] 0.036 | [2] 0.027 | [3] 0.009 | [4] -0.016 | [5] -0.011

ATF1 (UniProt P18846)
inactive: [1] -0.054 | [2] 0.11 | [3] -0.001 | [4] -0.014
active: [5] -0.391

ATP23 (UniProt Q9Y6H3)
inactive: [1] -0.023 | [2] -0.031 | [3] -0.009 | [4] -0.052 | [5] -0.053

ASNS (UniProt P08243)
inactive: [1] 0.025 | [2] 0.044 | [3] 0.027 | [4] -0.008 | [5] -0.019

ATPAF1 (UniProt Q5TC12)
inactive: [1] 0.034 | [2] -0.038 | [3] -0.016 | [4] -0.011 | [5] 0.057

ATP2B1 isoform 1 (UniProt P20020)
inactive: [1] -0.009 | [2] 0.002 | [3] 0.029 | [4] 0.032 | [5] 0.036

ATP1A3 isoform 3 (UniProt P13637)
inactive: [1] 0 | [2] -0.018 | [3] -0.002 | [4] 0.041 | [5] 0.08

ARRDC1 (UniProt Q8N5I2)
inactive: [1] 0.005 | [3] -0.062 | [4] -0.1 | [5] -0.037
active: [2] -0.462

ASPM (UniProt Q8IZT6)
inactive: [1] -0.064 | [2] -0.003 | [3] 0.073 | [4] 0.032 | [5] 0.042

ATP6V1A (UniProt P38606)
inactive: [1] -0.003 | [2] 0.008 | [3] 0.025 | [4] -0.03 | [5] -0.028

ASDURF (UniProt L0R819)
inactive: [1] 0.061 | [2] -0.025 | [3] -0.022 | [4] 0.063 | [5] 0.001

ATG101 (UniProt Q9BSB4)
inactive: [1] 0.04 | [2] 0.052 | [3] -0.009 | [4] -0.071 | [5] 0.089

ATL3 (UniProt Q6DD88)
inactive: [1] -0.025 | [2] 0.032 | [3] 0.012 | [4] -0.042 | [5] -0.012

ATP6V0D1 (UniProt P61421)
inactive: [1] 0.031 | [2] 0.008 | [3] 0.013 | [4] -0.169 | [5] -0.221

ASRGL1 (UniProt Q7L266)
inactive: [1] 0.069 | [2] 0.037 | [3] -0.007 | [4] -0.032 | [5] -0.048

ATP5F1E (UniProt P56381)
inactive: [1] 0.042 | [2] -0.011 | [3] -0.071 | [4] 0.023 | [5] 0.048

Quoted from the entries so far (ten entries):
ATP5PD (UniProt O75947)
inactive: [1] 0.058 | [2] 0 | [3] 0.023 | [4] -0.058 | [5] 0

ARL4A (UniProt P40617)
inactive: [1] -0.027

ARL2 (UniProt P36404)
inactive: [1] -0.037 | [2] 0.072 | [3] 0.015 | [4] -0.062 | [5] 0.012

ATG3 (UniProt Q9NT62)
inactive: [1] 0.002 | [2] 0.01 | [3] 0.074 | [4] 0.016 | [5] 0.005

ATP1B2 (UniProt P14415)
inactive: [1] -0.059 | [2] -0.048 | [3] 0.074 | [4] 0.047 | [5] 0.111

ASNSD1 (UniProt Q9NWL6)
inactive: [1] 0.201

ATF3 (UniProt P18847)
inactive: [1] 0.004 | [2] 0.277 | [3] 0.021 | [4] 0.143 | [5] 0.097

ATP5F1D (UniProt P30049)
inactive: [1] 0.006 | [2] 0.07 | [3] 0.015 | [4] -0.044 | [5] -0.015

ATF2 (UniProt P15336)
inactive: [1] 0.003 | [2] -0.013 | [3] 0.086 | [4] 0.071 | [5] -0.05

ARPC5L (UniProt Q9BPX5)
inactive: [1] 0.017 | [2] 0.031 | [3] -0.037 | [4] 0.004 | [5] 0.022

Next part

ATP1A1 (UniProt P05023)
inactive: [1] 0.009 | [2] 0.051 | [3] -0.045 | [4] 0 | [5] -0.01

ATN1 (UniProt P54259)
inactive: [1] 0.009 | [2] -0.044 | [3] 0.03 | [4] 0.031 | [5] -0.055

ATG5 (UniProt Q9H1Y0)
inactive: [1] -0.013 | [2] 0.045 | [3] 0.043 | [4] 0.01 | [5] 0.01

ARL2BP (UniProt Q9Y2Y0)
inactive: [1] -0.076 | [2] 0 | [3] 0.14 | [4] 0.069 | [5] 0.017

ATIC (UniProt P31939)
inactive: [1] -0.023 | [2] 0.039 | [3] 0.073 | [4] -0.041 | [5] -0.012

ARRB1 isoform 2 (UniProt P49407)
inactive: [1] 0.034 | [2] 0.031 | [3] 0.068 | [4] 0.028 | [5] 0.096

ATP1B1 (UniProt P05026)
inactive: [1] -0.083 | [2] 0.018 | [3] -0.044 | [4] 0.044 | [5] 0.091
